Results are given in words; binding and its absence hold for the method and conditions named. In cells and extracts the contact can be indirect. Binding calls can cover weak binding; strength is not graded here.
Molecular target: N-terminal region of STMN1 (GFP-tagged STMN1 mutant)
Experiment: co-IP; cells transfected with tagged constructs (Myc-tagged PIWIL1 or its deletion mutants, GFP-tagged STMN1 mutants); lysate with 1-3 ug antibody or IgG overnight, protein A+G agarose beads 2 h; Western blot

B1: RLIM (enzyme, UniProt Q9NVW2 1-624)
chain: MENSDSNDKGSGDQSAAQRRSQMDRLDREEAFYQFVNNLSEEDYRLMRDNNLLGTPGESTEEELLRRLQQIKEGPPPQNSDENRGGDSSDDVSNGDSIIDWLNSVRQTGNTTRSGQRGNQSWRAVSRTNPNSGDFRFSLEINVNRNNGSQNSENENEPSARRSSGENVENNSQRQVENPRSESTSARPSRSERNSTEALTEVPPTRGQRRARSRSPDHRRTRARAERSRSPLHPMSEIPRRSHHSISSQTFEHPLVNETEGSSRTRHHVTLRQQISGPELLSRGLFAASGTRNASQGAGSSDTAASGESTGSGQRPPTIVLDLQVRRVRPGEYRQRDSIASRTRSRSQTPNNTVTYESERGGFRRTFSRSERAGVRTYVSTIRIPIRRILNTGLSETTSVAIQTMLRQIMTGFGELSYFMYSDSDSEPTGSVSNRNMERAESRSGRGGSGGGSSSGSSSSSSSSSSSSSSSSSSSSPSSSSGGESSETSSDLFEGSNEGSSSSGSSGARREGRHRAPVTFDESGSLPFLSLAQFFLLNEDDDDQPRGLTKEQIDNLAMRSFGENDALKTCSVCITEYTEGNKLRKLPCSHEYHVHCIDRWLSENSTCPICRRAVLASGNRESVV
binding: binds
